This series relates to salivary glands of mice. Nature of the series: Salivary gland morphology (H&E, trichrome) and AQP5 immunofluorescence. The format is in vivo, mouse. Conditions: AAV5BMP6 transduced mice vs controls.

The record followed here is patent US10864285B2, “Methods for the diagnosis and treatment of Sjögren's syndrome” (The U.S.A., as represented by the Secretary, Department of …, priority 2012, dated 2020).

B1: BMP6: A member of the TGF-β superfamily of growth factors; added to cultured cells at 6 ng/ml (protein, UniProt P22004 375-513, looked up)
Bone morphogenetic protein 6: SASSRRRQQSRNRSTQSQDVARVSSASDYNSSELKTACRKHELYVSFQDLGWQDWIIAPKGYAANYCDGECSFPLNAHMNATNHAIVQTLVHLMNPEYVPKPCCAPTKLNAISVLYFDDNSNVILKKYRNMVVRACGCH
Turning to B1, the “Staining for the acinar specific protein AQP5” value was “less well defined on the apical surfaces”.
